Source: the supplement of paper PMC12764529
± gives the half width of the 95% confidence interval. For many entries, trypsin and chymotrypsin gave values far apart.

Columns and labels:
[1] = folding stability dG unfold (combined trypsin and chymotrypsin); higher = more stable
Experimental: (§1)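 Folding stability of de novo designed mini-proteins (<80 aa, no Cys; designed by TrROS, TrMRF, ProteinMPNN and the joint model) was measured by cDNA display proteolysis with trypsin and chymotrypsin. Each protease was used at 11 concentrations in a threefold dilution series plus a no-protease condition. K50 was inferred by Bayesian fitting of sequencing counts, and dG unfold was derived against a sequence-predicted unfolded-state K50 (Tsuboyama et al. method). Sequences shown include variable-length N-terminal GS-type padding (SAGGSAGG...) inside a display construct carrying a PA tag. Rows were kept only if the AF2 dimer inter-PAE was >15, to exclude likely homo-oligomers.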

[2] = folding stability dG unfold from chymotrypsin proteolysis; higher = more stable
Experimental: as §1

[3] = folding stability dG unfold from trypsin proteolysis; higher = more stable
Experimental: as §1

Sequence | folding stability dG unfold [1] | folding stability dG unfold [2] | folding stability dG unfold [3]
EPEITEVYPLVIPLDGVPLVINIYKIPETGTYIAVIERFPYEPGGKPINPERIVREFPSLEDVLDFIKALAS [r1_288_TrMRF] | 5.2 ± 0.092 kcal/mol | 5.29 ± 0.054 kcal/mol | 3.13 ± 0.062 kcal/mol
IEELKKALEEAGYEVEIEKVKVKSEEEAKKLAEELEKKTGYKTIVIKKNKNGKEVLVIKIRKKKLPKGVKPS [r1_179_TrROS_Hall] | 3.1 ± 0.55 kcal/mol | 3.75 ± 0.16 kcal/mol | 0.841 ± 0.12 kcal/mol
SAGGSAGGSASPDSVPVLVVESTYTTASVSTTPLGKPEYDTDSVVLKEEEIYVPPGELEELSAGGSAGGSAG [r3_121_JUSTAS] | 0.198 ± 0.14 kcal/mol | – | 1.02 ± 0.086 kcal/mol
SAGGSAGGSAPDTGSSSFPLDLPEKPVNVTVTSLPENPDLTLITIPGTGEVLVVFPGGEITPLSAGGSAGGS [r12_580_JUSTAS] | 0.558 ± 0.097 kcal/mol | – | 1.33 ± 0.075 kcal/mol
SAGGSALIVLEGDLDSVVALAKEAGDPNVKVEPVADFNDDPSEPRLYRITIERDGEPDGELLFLDPSAGGSA [r15_428_TrMRF] | < -1 kcal/mol | – | -0.0896 ± 0.1 kcal/mol
PILEKALEAAKKAIENGEKEVEITVKLEDGSEIKIKVKVEKKDGKIVKVEIEVEITNPNGEKITLTFTFEKS [r1_254_TrROS_Hall] | > 6 kcal/mol | – | 1.98 ± 0.26 kcal/mol
NGEIVEVYPITIPLPGYQIEIWIYRMPDDGHYWVTIEIFPYDPNGKPKNPQKITYPFPSLDDIKDFLKDIIS [r1_288_TrROS] | > 6 kcal/mol | – | 2.94 ± 0.31 kcal/mol
SAGGSAGGSAKKKKKKKKKTEIKTITIPADDLSEEEIKELLSDEEAEKILKNTKPGDTITLSAGGSAGGSAG [r3_326_TrROS_Hall] | 0.363 ± 0.26 kcal/mol | – | 1.05 ± 0.11 kcal/mol
SMKVYKTKDGKLVAKPKTLTLEITVPPNTTAEEIAKKIADLLKKLGIKEVKVTVEVNKENKEVKITIEIKSA [r9_1124_TrROS_Hall] | – | 4.9 ± 0.4 kcal/mol | 1.23 ± 0.24 kcal/mol
SAGGSAGGSAGGMPVVVINTPSEEEAEKEKAKLEEDPEYKDGPINFIYIPPGTLPENVPLSAGGSAGGSAGG [r7_976_JUSTAS] | < -1 kcal/mol | – | 0.286 ± 0.072 kcal/mol
SAGGMEVKIEITYDEETGTLTVTAEVKLPDGVTVRVTATITPDGTITITVEVTNKDGEKVTKTVTFPSAGGS [r16_733_TrROS_Hall] | – | – | 4 ± 0.46 kcal/mol
SAGGSAGGSASSSVTITNRVTNPDTGLRYITIPSKGERVTLSPDESATIPVPPDAPVSVLGSSAGGSAGGSA [r18_329_JUSTAS] | < -1 kcal/mol | – | -0.694 ± 0.24 kcal/mol
MLTAEEIRELAEELAKKLRELFPEKDLKVEIEVEVEVEVTRVEYDEETGEETVERERVRLKLTIKIEPKEES [r1_90_TrROS_Hall] | – | – | 3.32 ± 0.28 kcal/mol
SAGGSAGGSAMIVVTLDDPEEAREAVRARFGPEVEITPLETTTVGDRVFTKIAVRVPPELASAGGSAGGSAG [r3_87_JUSTAS] | -0.395 ± 0.24 kcal/mol | – | -0.351 ± 0.19 kcal/mol
SAGGSAGGSDILKELAEEFPITSIEITENGHISVMMQAPKPGYMYEIEIDIEDNKVEIEPYKPSAGGSAGGS [r12_944_TrROS] | 0.605 ± 0.17 kcal/mol | – | 1.34 ± 0.15 kcal/mol
SAGGSAGGSAGGMIPLASVTTERDPNSDNVLVTLTDPSPGAPVTVEVSVEEAEKLIALSSAGGSAGGSAGGS [r10_988_JUSTAS] | 0.916 ± 0.068 kcal/mol | – | 1.82 ± 0.062 kcal/mol
SAGGSAGGSAGGSGSMVVEKVSPEPNVTKTIFFEPPEEGLVITVETLEGDTWSSQIILQSAGGSAGGSAGGS [r4_484_JUSTAS] | -0.0129 ± 0.3 kcal/mol | – | 0.657 ± 0.097 kcal/mol
SAGGSAAIQIPIPPGDKRPITFPIYIGNYPFRVDAEINPKEPGYVKQDIENPGDGKEVEETIPLDDSAGGSA [r15_328_TrROS] | 0.56 ± 0.3 kcal/mol | – | 1.36 ± 0.074 kcal/mol
SAGGSAGGSAGGMLAAIIYKEGDEKEIVEFDSVEEVEEKSKELGVEVEIVTKEEAEKLLSAGGSAGGSAGGS [r10_66_TrMRF] | 0.565 ± 0.24 kcal/mol | – | 1.26 ± 0.084 kcal/mol
SAGGSAGGSAGMKVDLHLPSEEEARERAEELKEELKKAGAPEDEEVEITIRPVDPAELLLSAGGSAGGSAGG [r17_180_JUSTAS] | 0.499 ± 0.16 kcal/mol | – | 1.24 ± 0.067 kcal/mol
SAGMKIEIKVEYDEETGTLTVEVKVTLPDGRELTVRITITRTPDKLTITVEVEEGMTVEEILKKLLEELSAG [r5_478_TrROS_Hall] | > 6 kcal/mol | – | 2.75 ± 0.17 kcal/mol
SAGGSAGGSASSSPIGTSESSLPNGIRITTTTYSNSGSLTTVTTVEIPPLTEEERAAVLAASAGGSAGGSAG [r3_158_JUSTAS] | 0.394 ± 0.25 kcal/mol | 1.11 ± 0.15 kcal/mol | –
SAGGEVEVRVEVRVEARPLPDGRVRVEVRVEVRLLRPPPRPVTPRDLLAAILRLLDPEIRPDDPRAILSAGG [r13_136_TrMRF] | 1.79 ± 0.13 kcal/mol | 2.29 ± 0.058 kcal/mol | –
SAGGSAPEVTVEPDPTTGRVTVRVRVPDPETGEWFELVAPTDPAGNVAGVDLHPDGNAATAVALLPSAGGSA [r15_557_TrMRF] | 0.54 ± 0.059 kcal/mol | 1.12 ± 0.023 kcal/mol | –

Sequence | folding stability dG unfold [1] | folding stability dG unfold [2] | folding stability dG unfold [3]
SAGGSAGGSAGGWRRLRLTLTDPAVDNVERELTLLLPIPLPPAPRPFPVTDADGNTGPVGSAGGSAGGSAGG [r11_419_TrMRF] | 1.33 ± 0.12 kcal/mol | 2.56 ± 0.066 kcal/mol | –
SAGGSAGGDRFTIINLHPNPDGQYWIHVHEIEWEPVDGQPRLEIEPRTIRLPGDPEDALDAALDSAGGSAGG [r6_129_TrROS] | 0.277 ± 0.1 kcal/mol | 1.07 ± 0.081 kcal/mol | –
SAGGSAGGSAGGGTSTTRTDPETGVTTTTETTSTPTTTTTTTTLDPATNTATTTTTTTPASAGGSAGGSAGG [r7_760_JUSTAS] | 1.13 ± 0.12 kcal/mol | 1.57 ± 0.07 kcal/mol | –
SAGGSAGGSAGGSNPFDPNAPAVTTTTVPKVIKTPTALVETTVTVTETPGGTTVTTTPISAGGSAGGSAGGS [r4_145_JUSTAS] | 0.992 ± 0.083 kcal/mol | 1.5 ± 0.039 kcal/mol | –
SAGGSAGGSAGGMPELEVELLAVEPLPGQIRALFRVPDTDALLLATVDPETGEIRVEVGTSAGGSAGGSAGG [r7_163_TrMRF] | 0.635 ± 0.1 kcal/mol | 1.47 ± 0.067 kcal/mol | –
SAGGSAGGSSMPLKVTVKDPNNGKEYEATVTETLPDGTVLLTVTTPDGAVKEVTEITDYEVVGSAGGSAGGS [r12_118_JUSTAS] | 0.364 ± 0.09 kcal/mol | – | 1.12 ± 0.066 kcal/mol
ATLTTPLPDGSVVTIDYREAPGGPRVFTITVTLPDGTEVTIPVTVDLASHPDVAPEDIAAAAAAAAVAALAS [r1_92_JUSTAS] | 2.95 ± 0.13 kcal/mol | 3.29 ± 0.059 kcal/mol | –
SAGGSAGGSAGSPLPPGVPVVTPTTTVDTSSDLVTVTDVTVTPEPGEVTSTVTVVPASLLSAGGSAGGSAGG [r11_468_JUSTAS] | 0.3 ± 0.22 kcal/mol | – | 1.23 ± 0.091 kcal/mol
SAGGSSISVPPGGYVPGSVPNPGGTSRVVITRPGTGEVETYPLGDAVPEVTDDEPVSSTVVETPPSEESAGG [r13_173_JUSTAS] | 1.37 ± 0.078 kcal/mol | 2 ± 0.083 kcal/mol | –
SAGGGMKVTVTVPVPNDPQEAEALRAALEAEVGGAVEVTVEPGRNTATFTVDEAVLPVLRARGLPVAPSAGG [r13_156_JUSTAS] | 0.48 ± 0.22 kcal/mol | 1.06 ± 0.072 kcal/mol | –
SAGAPPPVRIEVRRERLPDRSLRLHAEVRLPDGRLLAEVEAPLDVPDDPEAVTRFLRAVAALAEALAASAGG [r19_13_TrMRF] | 2.85 ± 0.076 kcal/mol | 3.3 ± 0.035 kcal/mol | –
SAGGSPVIRGPTLEDALEAARALAAALREAFPDRPDLVVEVRVELEDPETGTRREYTFTLVLPFPGSAGGSA [r2_393_TrMRF] | 3.41 ± 0.11 kcal/mol | 3.74 ± 0.051 kcal/mol | –
SMKLIKLKFPGKSLEEVLKAAKELEETGKFEILSINDETEDIYIDIAYKPPKPPKPPKPKVVFDENGKEGSA [r9_830_TrMRF] | 1.03 ± 0.3 kcal/mol | 1.86 ± 0.11 kcal/mol | –
SAGGSAGGELLTAEELRALHPDLRIEVRRVRVEREYRLPDVPGRRVREEREVLVVRVVPRDALESAGGSAGG [r6_659_TrROS_Hall] | 0.647 ± 0.34 kcal/mol | 1.2 ± 0.26 kcal/mol | –
SAGGSAGGSPGDNVYWRVKIEHPNGNEMTFPFPFKGDPEEAEEFADGLAEWNPNMKVTIEPVPSAGGSAGGS [r12_268_TrROS] | 0.535 ± 0.095 kcal/mol | 1.07 ± 0.095 kcal/mol | –
SAGGPAFTVTEVTVTANPEAGTVTVTATFEDGAVATATVDPSTGRVPGRVLLPDALVDFEGTLDVPGSAGGS [r8_363_TrMRF] | 0.959 ± 0.04 kcal/mol | 1.46 ± 0.053 kcal/mol | –
SAGGSAGGEMSEEEKKKLKEEEERLKKLKPKLVIVVKPGMSEEEKELAKELAEKLNVEVEIVVESAGGSAGG [r6_129_TrROS_Hall] | 0.91 ± 0.25 kcal/mol | 1.39 ± 0.18 kcal/mol | –
SAGGSAGGSAGGSPPVTELRVSGDNIVPPALVRLPDGSVLLYYPYGDELRLLVVPYGAASAGGSAGGSAGGS [r4_279_TrMRF] | 0.776 ± 0.084 kcal/mol | 1.56 ± 0.039 kcal/mol | –
SAGGKIKKIELLPKDAKPGAKIIITFEDGSKYEIEAELVKLENGEYYLKLKIKVNGKEIELILKIKPSAGGS [r8_360_TrROS_Hall] | – | 5.27 ± 0.29 kcal/mol | 2.29 ± 0.38 kcal/mol
SAGMEELIKKALELAEELAKALHPSPKPVNFEVKIEPLYIDEENGYAHLKVTIKSENEEHEFEITIKLESAG [r5_53_TrMRF] | > 6 kcal/mol | – | 3.11 ± 0.32 kcal/mol
SAGGSAGGSAGGSSVKTTPEKVPDSTSVTTSELPSGERRVTTKDASGTPSTTTLPPDLTSAGGSAGGSAGGS [r4_120_JUSTAS] | 1.03 ± 0.11 kcal/mol | 1.59 ± 0.039 kcal/mol | –
SAGGMKVEITEIEEKDGYIVIRLKVEVEVNGEKYTFEMTLVIKVEPPPPKKVELSEEELLDENGKVVSAGGS [r8_234_TrROS_Hall] | > 6 kcal/mol | – | 1.92 ± 0.11 kcal/mol
SAGGASLVEHPDGSVIPDVNPRGGLDRITAKRPKSGEIVTRPVPADESFTVPPDEPVEAVDTTDWPGSAGGS [r16_123_JUSTAS] | 0.652 ± 0.069 kcal/mol | 1.13 ± 0.019 kcal/mol | –

Taken from above.
Under folding stability dG unfold [1], SAGGSAPEVTVEPDPTTGRVTVRVRVPDPETGEWFELVAPTDPAGNVAGVDLHPDGNAATAVALLPSAGGSA [r15_557_TrMRF] shows 0.54 ± 0.059 kcal/mol
Under folding stability dG unfold [3], SAGGMEVKIEITYDEETGTLTVTAEVKLPDGVTVRVTATITPDGTITITVEVTNKDGEKVTKTVTFPSAGGS [r16_733_TrROS_Hall] shows 4 ± 0.46 kcal/mol
Under folding stability dG unfold [2], SAGGKIKKIELLPKDAKPGAKIIITFEDGSKYEIEAELVKLENGEYYLKLKIKVNGKEIELILKIKPSAGGS [r8_360_TrROS_Hall] shows 5.27 ± 0.29 kcal/mol
